Results published in patent US20230287109A1.
Results are given in words; binding and its absence hold for the method and conditions named. Some binding calls cover weakened binding; strength is not graded here.

The chains behind the UniProt entries cited, without tags or fusion partners. Residues count along the entry.
UniProt O15123, residues 19-496: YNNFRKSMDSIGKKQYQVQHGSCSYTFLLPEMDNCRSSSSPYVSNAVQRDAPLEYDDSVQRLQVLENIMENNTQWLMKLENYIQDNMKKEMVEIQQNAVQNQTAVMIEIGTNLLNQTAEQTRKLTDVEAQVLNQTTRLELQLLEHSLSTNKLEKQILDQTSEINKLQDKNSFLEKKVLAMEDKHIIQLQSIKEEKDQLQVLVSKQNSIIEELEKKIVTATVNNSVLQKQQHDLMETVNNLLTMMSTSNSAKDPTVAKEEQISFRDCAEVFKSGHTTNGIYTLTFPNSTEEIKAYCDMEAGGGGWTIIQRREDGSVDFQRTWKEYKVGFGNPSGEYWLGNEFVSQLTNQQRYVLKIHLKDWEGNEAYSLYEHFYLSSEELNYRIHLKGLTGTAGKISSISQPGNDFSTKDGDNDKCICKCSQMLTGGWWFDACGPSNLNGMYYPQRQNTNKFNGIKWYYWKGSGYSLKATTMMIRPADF
UniProt Q02763, residues 23-745: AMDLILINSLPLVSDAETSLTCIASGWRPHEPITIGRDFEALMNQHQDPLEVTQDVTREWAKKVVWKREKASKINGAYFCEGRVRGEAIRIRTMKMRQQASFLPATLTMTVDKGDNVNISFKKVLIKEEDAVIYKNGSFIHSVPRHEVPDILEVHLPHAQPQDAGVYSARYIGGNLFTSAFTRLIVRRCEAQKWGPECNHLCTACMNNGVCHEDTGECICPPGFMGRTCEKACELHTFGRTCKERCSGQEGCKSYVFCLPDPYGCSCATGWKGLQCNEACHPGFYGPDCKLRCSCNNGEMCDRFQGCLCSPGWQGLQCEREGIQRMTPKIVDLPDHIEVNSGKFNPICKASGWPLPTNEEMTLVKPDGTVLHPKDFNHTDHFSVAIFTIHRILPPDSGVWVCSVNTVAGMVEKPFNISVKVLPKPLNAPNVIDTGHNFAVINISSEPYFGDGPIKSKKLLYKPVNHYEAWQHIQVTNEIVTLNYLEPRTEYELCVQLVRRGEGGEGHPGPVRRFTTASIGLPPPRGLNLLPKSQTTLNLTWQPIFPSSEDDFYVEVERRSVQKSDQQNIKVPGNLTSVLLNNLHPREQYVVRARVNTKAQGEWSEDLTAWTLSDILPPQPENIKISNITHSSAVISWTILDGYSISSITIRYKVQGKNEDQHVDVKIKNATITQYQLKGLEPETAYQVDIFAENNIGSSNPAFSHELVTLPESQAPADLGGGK

Columns and labels:
[1] = biological target: Recombinant human full-length Ang2 (human) (UniProt O15123); test: SPR (BIACORE 3000), Ang2 captured on CM5, dimeric Tie2 100 nM injected first
[2] = biological target: Recombinant human full-length Ang2 (human) (UniProt O15123); test: SPR, Ang2 on the chip (surface label 3-Ang2), first of three sequential injections
[3] = biological target: Recombinant human full-length Ang2 (human) (UniProt O15123); test: SPR, Ang2 captured on CM5, human Tie2 injected

Measured: binding

human dimeric form of Tie2 (Example 8) (from UniProt Q02763 23-745) (receptor)
binds: all assays above
